Series [1] has as its target APOBEC3G (A3G) (Homo sapiens) (UniProt Q9HC16). The series is described as follows: EMSA. The following applies: 5 mM Mg2+; 25 mM Tris-HCl pH 8.0, 50 mM NaCl, 5 mM MgCl2, 1 mM DTT, 10% glycerol, 15 min at 37 C; 4% acrylamide gel, 0.5x TBE (stated for A3G); protein in a lysate after overexpression; protein details: C-terminal Myc-His; label: 5'-Cy5; single-stranded DNA.
Series [2] relates to Replication protein A (human RPA) (Homo sapiens). The series is described as follows: EMSA. The note with it: 25 mM Tris-HCl pH 8.0, 50 mM NaCl, 5 mM MgCl2, 1 mM DTT, 10% glycerol, 15 min at 37 C; 4% acrylamide gel, 0.5x TBE (stated for A3G); recombinant protein; label: 5'-Cy5; single-stranded DNA. A general note: In EMSA bound probe runs differently from free probe, usually more slowly.

Chains of the proteins cited; added tags and fusions are not shown. A change or cut given only in a name is not applied to a line headed by its entry. Chains listed by the source or under a name are the forms on record and can include a tag or linker.
UniProt Q9HC16: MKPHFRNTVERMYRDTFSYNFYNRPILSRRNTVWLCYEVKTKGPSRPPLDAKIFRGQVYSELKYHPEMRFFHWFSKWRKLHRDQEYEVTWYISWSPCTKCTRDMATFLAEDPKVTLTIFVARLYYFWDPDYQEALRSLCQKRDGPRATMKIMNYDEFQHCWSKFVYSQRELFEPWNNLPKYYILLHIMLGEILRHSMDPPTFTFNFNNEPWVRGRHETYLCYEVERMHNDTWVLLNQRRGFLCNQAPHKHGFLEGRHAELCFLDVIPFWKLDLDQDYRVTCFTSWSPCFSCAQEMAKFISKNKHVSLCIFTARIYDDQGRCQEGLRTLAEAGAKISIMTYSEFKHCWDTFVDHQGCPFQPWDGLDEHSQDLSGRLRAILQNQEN
Replication protein A (human RPA) (Homo sapiens), one chain, as listed by the source, chain 2 of 3: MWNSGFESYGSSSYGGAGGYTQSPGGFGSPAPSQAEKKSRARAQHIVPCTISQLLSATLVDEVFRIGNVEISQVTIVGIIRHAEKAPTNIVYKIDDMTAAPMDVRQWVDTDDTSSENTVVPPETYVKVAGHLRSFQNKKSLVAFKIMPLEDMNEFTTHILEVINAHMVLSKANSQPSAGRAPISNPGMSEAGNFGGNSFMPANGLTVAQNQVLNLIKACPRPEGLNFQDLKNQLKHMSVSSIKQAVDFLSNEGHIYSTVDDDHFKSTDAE
Replication protein A (human RPA) (Homo sapiens), one chain, as listed by the source, chain 1 of 3: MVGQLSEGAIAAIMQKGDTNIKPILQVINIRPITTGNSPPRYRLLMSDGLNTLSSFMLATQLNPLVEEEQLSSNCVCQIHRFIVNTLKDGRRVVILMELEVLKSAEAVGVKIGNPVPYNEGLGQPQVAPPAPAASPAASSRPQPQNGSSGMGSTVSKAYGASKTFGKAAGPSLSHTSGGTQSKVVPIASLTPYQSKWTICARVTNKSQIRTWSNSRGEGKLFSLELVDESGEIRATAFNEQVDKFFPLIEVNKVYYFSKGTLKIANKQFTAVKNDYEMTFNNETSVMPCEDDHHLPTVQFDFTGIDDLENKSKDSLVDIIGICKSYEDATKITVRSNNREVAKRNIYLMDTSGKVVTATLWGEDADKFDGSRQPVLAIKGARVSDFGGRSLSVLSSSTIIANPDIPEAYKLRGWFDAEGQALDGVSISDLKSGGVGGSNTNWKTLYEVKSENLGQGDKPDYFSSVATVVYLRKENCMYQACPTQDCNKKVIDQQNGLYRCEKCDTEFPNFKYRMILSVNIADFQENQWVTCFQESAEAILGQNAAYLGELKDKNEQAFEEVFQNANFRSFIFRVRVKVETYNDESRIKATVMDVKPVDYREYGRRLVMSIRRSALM
Replication protein A (human RPA) (Homo sapiens), one chain, as listed by the source, chain 3 of 3: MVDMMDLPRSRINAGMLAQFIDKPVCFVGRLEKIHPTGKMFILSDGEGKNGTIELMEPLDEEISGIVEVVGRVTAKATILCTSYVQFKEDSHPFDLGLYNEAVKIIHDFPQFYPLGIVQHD

For at least one entry, the source does not settle the construct or the ends of the probe. For some assays here: Where cells or extracts were used, other partners may take part. For some assays here: At least one verdict rests on a figure or table, not on a statement of the authors.

A word on the Kd: it is a measure of binding affinity in units of concentration. Low values mean higher affinity, high ones lower affinity. Turning to “AAGACCATGACCGCCAGCTCAAGTGTAAGTTACATGCATCTCTACCAGAAGTCAGAGGTTAGATTAGAGAGTATTT [EMSA oligonucleotide]”, the Kd in series [1] was determined as 45 nM. Moreover, the binding result in series [2] was “binds”.
